Results published in paper PMC9098485.
No constants are given. Whether binding was seen depends on the method and setting. In cells and extracts the contact can be indirect. Some results given as binding are weak or reduced against the parent protein; the word gives no strength. Each block holds one binder with its values, some of them ahead of it.

By UniProt entry, the sequences of proteins in these tests, tags left out. Residues count along the entry.
UniProt O14672, residues 214-748: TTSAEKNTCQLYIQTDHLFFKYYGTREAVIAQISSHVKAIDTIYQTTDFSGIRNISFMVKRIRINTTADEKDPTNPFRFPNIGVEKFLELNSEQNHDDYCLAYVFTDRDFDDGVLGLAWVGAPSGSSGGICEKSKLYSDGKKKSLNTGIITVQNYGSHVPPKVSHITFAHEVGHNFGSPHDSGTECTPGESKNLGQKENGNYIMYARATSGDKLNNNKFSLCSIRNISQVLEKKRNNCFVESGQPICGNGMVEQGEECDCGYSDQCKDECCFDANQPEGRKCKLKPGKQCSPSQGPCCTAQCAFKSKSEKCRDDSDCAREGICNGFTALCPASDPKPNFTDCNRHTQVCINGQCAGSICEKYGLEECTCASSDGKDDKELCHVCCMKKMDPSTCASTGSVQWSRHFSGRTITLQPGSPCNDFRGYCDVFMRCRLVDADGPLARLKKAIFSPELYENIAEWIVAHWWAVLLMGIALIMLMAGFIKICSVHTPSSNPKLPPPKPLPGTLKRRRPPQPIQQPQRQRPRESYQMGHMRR

Molecular target: A disintegrin and metalloprotease-10 (ADAM10) (human (endogenous in DU145 and 22Rv-1)) (UniProt O14672)
Assay: co-IP; protein lysate of DU145 and 22Rv-1 cells; 1.5 ug antibody (ADAM10, EphA3 or ephrin-A5), 4 °C for 12 h, protein A/G agarose magnetic beads; Western blotting; homologous Ig as negative control

binding: binds
B1: ephrin-A5 (ligand, UniProt P52803 21-203)
chain: QDPGSKAVADRYAVYWNSSNPRFQRGDYHIDVCINDYLDVFCPHYEDSVPEDKTERYVLYMVNFDGYSACDHTSKGFKRWECNRPHSPNGPLKFSEKFQLFTPFSLGFEFRPGREYFYISSAIPDNGRRSCLKLKVFVRPTNSCMKTIGVHDRVFDVNDKVENSLEPADDTVHESAEPSRGEN

binding: binds
B2: EphA3 (receptor, UniProt P29320 21-983)
chain: ELIPQPSNEVNLLDSKTIQGELGWISYPSHGWEEISGVDEHYTPIRTYQVCNVMDHSQNNWLRTNWVPRNSAQKIYVELKFTLRDCNSIPLVLGTCKETFNLYYMESDDDHGVKFREHQFTKIDTIAADESFTQMDLGDRILKLNTEIREVGPVNKKGFYLAFQDVGACVALVSVRVYFKKCPFTVKNLAMFPDTVPMDSQSLVEVRGSCVNNSKEEDPPRMYCSTEGEWLVPIGKCSCNAGYEERGFMCQACRPGFYKALDGNMKCAKCPPHSSTQEDGSMNCRCENNYFRADKDPPSMACTRPPSSPRNVISNINETSVILDWSWPLDTGGRKDVTFNIICKKCGWNIKQCEPCSPNVRFLPRQFGLTNTTVTVTDLLAHTNYTFEIDAVNGVSELSSPPRQFAAVSITTNQAAPSPVLTIKKDRTSRNSISLSWQEPEHPNGIILDYEVKYYEKQEQETSYTILRARGTNVTISSLKPDTIYVFQIRARTAAGYGTNSRKFEFETSPDSFSISGESSQVVMIAISAAVAIILLTVVIYVLIGRFCGYKSKHGADEKRLHFGNGHLKLPGLRTYVDPHTYEDPTQAVHEFAKELDATNISIDKVVGAGEFGEVCSGRLKLPSKKEISVAIKTLKVGYTEKQRRDFLGEASIMGQFDHPNIIRLEGVVTKSKPVMIVTEYMENGSLDSFLRKHDAQFTVIQLVGMLRGIASGMKYLSDMGYVHRDLAARNILINSNLVCKVSDFGLSRVLEDDPEAAYTTRGGKIPIRWTSPEAIAYRKFTSASDVWSYGIVLWEVMSYGERPYWEMSNQDVIKAVDEGYRLPPPMDCPAALYQLMLDCWQKDRNNRPKFEQIVSILDKLIRNPGSLKIITSAAARPSNLLLDQSNVDITTFRTTGDWLNGVWTAHCKEIFTGVEYSSCDTIAKISTDDMKKVGVTVVGPQKKIISSIKALETQSKNGPVPV
